These are yes or no findings as the source states them, for the method shown. Binding seen in cells or lysates may run through a third protein. Some entries that bind do so weakly or less than the wild type.
What was measured:
Flag-CENPA (human) = Flag-CENPA (human) (UniProt P49450); assay: co-IP; HEK293T cells co-transfected with Flag- and HA-tagged CENPA and YY1 (or Flag-YY1 truncations with HA-CENPA)
Flag-YY1 = Flag-YY1 (UniProt P25490); assay: as above
[1] = biological target: endogenous CENPA (Huh7) (human (endogenous in Huh7)) (UniProt P49450); assay: co-IP; endogenous proteins, whole-cell lysate from Huh7 cells, IgG as control

HA-YY1 (from UniProt P25490 1-414)
binding (Flag-CENPA (human)): binds

HA-CENPA (from UniProt P49450 1-140)
binding (Flag-YY1): binds

endogenous YY1 (Huh7) (from UniProt P25490 1-414)
binding [1]: binds

From publication PMC10620822
